Results deposited as PubChem BioAssay AID504808 (Drosophila RNAi Screening Center, 2011).

Assay: 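Fly genes required to hold E2F transcription in check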 (primary screen)
Cell system: Drosophila S2 cells
Reagent: long dsRNA against Drosophila genes
Read-out: 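Dual luciferase plate measurements; E2F-specific signal taken as firefly over Renilla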
Scale: E2F firefly: higher = more E2F reporter activity; Renilla normaliser: higher = more normaliser reporter signal
Call rule: 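Called active if the normalised E2F reporter went up by over 50%; the cutoff is arbitrary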
The deposit covers about 21,000 reagents; below is a random part of those that have a named target and a result. Over the whole deposit, 18 (0.084%) got an active call. 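Raw counts without plate normalisation, one of two replicates; the ratio scores behind the calls were not deposited.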 The numbers tell different reagents against one gene apart. A plus sign joins genes that one reagent is predicted to hit. No sequences are given here. The record does not give: the amount of reagent, the time to read-out.

| predicted target | reagent no. | E2F firefly, rep 1 | Renilla normaliser, rep 1 | Call |
| --- | --- | --- | --- | --- |
| Snrk (SNF related kinase) | 1 | 171 | 41 | inactive |
| EloC (Elongin C) | 1 | 1.45e5 | 5138 | inactive |
| Cad87A (Cadherin 87A) | 1 | 79052 | 3583 | inactive |
| CG8508 | 1 | 80146 | 3771 | inactive |
| Axud1 (AXIN1 up-regulated 1) | 1 | 1.63e5 | 5131 | inactive |
| mtg (mind the gap) | 1 | 1.31e5 | 6724 | inactive |
| Dtg (Dpp target gene) | 1 | 69559 | 3564 | inactive |
| CG32681 | 1 | 90197 | 2684 | inactive |
| Obp93a (Odorant-binding protein 93a) | 1 | 1.47e5 | 7947 | inactive |
| CG14650 | 1 | 86156 | 3636 | inactive |
| trem (trade embargo) | 1 | 1.31e5 | 6887 | inactive |
| IscU (Iron-sulfur cluster assembly enzyme) | 1 | 1.31e5 | 7890 | inactive |
| vvl (ventral veins lacking) | 1 | 96176 | 3996 | inactive |
| PolA1 (DNA polymerase alpha subunit 1) | 1 | 63379 | 3410 | inactive |
| emc (extra macrochaetae) | 1 | 54598 | 3464 | inactive |
| CG3603 | 1 | 1.16e5 | 6435 | inactive |
| RNaseX25 (Ribonuclease X25) | 1 | 66392 | 3306 | inactive |
| CG10214 | 1 | 74991 | 2845 | inactive |
| mag (magro) | 1 | 85071 | 3624 | inactive |
| CG12984 | 1 | 1.33e5 | 7344 | inactive |
| Nckx30C | 1 | 1.43e5 | 5436 | inactive |
| Nckx30C | 2 | 1.52e5 | 4824 | inactive |
| Nckx30C | 3 | 1.61e5 | 5410 | inactive |
| Nckx30C | 4 | 1.22e5 | 4811 | inactive |
| Fadd (Fas-associated death domain) | 1 | 1.37e5 | 7990 | inactive |
| CG12128 | 1 | 3150 | 75 | inactive |
| hec (hector) | 1 | 58882 | 4657 | inactive |
| Psa (Puromycin sensitive aminopeptidase) | 1 | 73239 | 3149 | inactive |
| corolla | 1 | 1.55e5 | 5408 | inactive |
| CG14692 | 1 | 1.39e5 | 7161 | inactive |
| Nulp1 (Nuclear localized protein 1) | 1 | 80621 | 34 | inactive |
| CG13928 | 1 | 99341 | 4250 | inactive |
| Mal-A5 (Maltase A5) | 1 | 3245 | 212 | inactive |
| CG18748 | 1 | 1.45e5 | 7690 | inactive |
| CG3631 | 1 | 78247 | 3687 | inactive |
| lft (lowfat) | 1 | 1.47e5 | 5233 | inactive |
| Sin1 (SAPK-interacting protein 1) | 1 | 191 | 42 | inactive |
| CG18662 | 1 | 1.58e5 | 4944 | inactive |
| Ublcp1 | 1 | 62050 | 2698 | inactive |
| DNAlig4 (DNA ligase 4) | 1 | 1.21e5 | 6114 | inactive |
| Son (Son RNA binding protein) | 1 | 1.29e5 | 6025 | inactive |
| ACC (Acetyl-CoA carboxylase) | 1 | 94862 | 4886 | inactive |
| ACC (Acetyl-CoA carboxylase) | 2 | 2458 | 258 | inactive |
| CG5693 | 1 | 1.09e5 | 4135 | inactive |
| Syt14 (Synaptotagmin 14) | 1 | 1.41e5 | 7394 | inactive |
| ImpE2 (Ecdysone-inducible gene E2) | 1 | 80390 | 4381 | inactive |
| CG14613 | 1 | 1.41e5 | 5264 | inactive |
| piwi (P-element induced wimpy testis) | 1 | 83170 | 3230 | inactive |
| Arl8 (ADP ribosylation factor-like 8) | 1 | 1.38e5 | 6322 | inactive |
| Ntl (Neurotransmitter transporter-like) | 1 | 51479 | 2847 | inactive |
| tra2 (transformer 2) | 1 | 2718 | 222 | inactive |
| CG2685 | 1 | 70067 | 6076 | inactive |
| CG11841 | 1 | 1776 | 984 | inactive |
| CG18269 | 1 | 1.50e5 | 5346 | inactive |
| Srx (Sulfiredoxin) | 1 | 1.55e5 | 7323 | inactive |
| CG1231 | 1 | 92829 | 3928 | inactive |
| CG5861 | 1 | 81096 | 3107 | inactive |
| elm (ethanol sensitive with low memory) | 1 | 60150 | 3147 | inactive |
| TM9SF2 (Transmembrane 9 superfamily protein member 2) | 1 | 90394 | 4128 | inactive |
| CG15539 | 1 | 1.04e5 | 6814 | inactive |
| Prat2 (Phosphoribosylamidotransferase 2) | 1 | 74816 | 3550 | inactive |
| CG31321 | 1 | 90229 | 2772 | inactive |
| CG15611 | 1 | 77696 | 4159 | inactive |
| CG15611 | 2 | 1.50e5 | 5113 | inactive |
| Rox8 | 1 | 1.03e5 | 6233 | inactive |
| CG7992 | 1 | 1.38e5 | 6410 | inactive |
| santa-maria | 1 | 1.23e5 | 6524 | inactive |
| santa-maria | 2 | 86482 | 3810 | inactive |
| CG13148 | 1 | 92147 | 4238 | inactive |
| CG8292 | 1 | 1.37e5 | 5672 | inactive |
| CG16965 | 1 | 90314 | 3980 | inactive |
| Hydr2 (alpha/beta hydrolase2) | 1 | 72077 | 3906 | inactive |
| Spf45 | 1 | 1.11e5 | 4872 | inactive |
| Sulf1 (Sulfated) | 1 | 1.21e5 | 6323 | inactive |
| CG6034 | 1 | 1.71e5 | 8030 | inactive |
| Ir92a (Ionotropic receptor 92a) | 1 | 1.52e5 | 7661 | inactive |
| CG13766 | 1 | 1.48e5 | 5344 | inactive |
| CG10154 | 1 | 1.30e5 | 7144 | inactive |
| CG6689 | 1 | 81241 | 3707 | inactive |
| CG14330 | 1 | 1.16e5 | 6947 | inactive |
| CG2493 | 1 | 90442 | 3798 | inactive |
| Mer (Merlin) | 1 | 1.64e5 | 5372 | inactive |
| slou (slouch) | 1 | 1.61e5 | 7363 | inactive |
| Sxl + CG14425 (retired record) | 1 | 8365 | 700 | inactive |
| Sxl + CG14425 (retired record) | 2 | 1.08e5 | 5875 | inactive |
